# Results of single-concentration screens

Chains of the proteins cited; added tags and fusions are not shown. Residues count along the entry.
UniProt Q8IDJ8, 1-583: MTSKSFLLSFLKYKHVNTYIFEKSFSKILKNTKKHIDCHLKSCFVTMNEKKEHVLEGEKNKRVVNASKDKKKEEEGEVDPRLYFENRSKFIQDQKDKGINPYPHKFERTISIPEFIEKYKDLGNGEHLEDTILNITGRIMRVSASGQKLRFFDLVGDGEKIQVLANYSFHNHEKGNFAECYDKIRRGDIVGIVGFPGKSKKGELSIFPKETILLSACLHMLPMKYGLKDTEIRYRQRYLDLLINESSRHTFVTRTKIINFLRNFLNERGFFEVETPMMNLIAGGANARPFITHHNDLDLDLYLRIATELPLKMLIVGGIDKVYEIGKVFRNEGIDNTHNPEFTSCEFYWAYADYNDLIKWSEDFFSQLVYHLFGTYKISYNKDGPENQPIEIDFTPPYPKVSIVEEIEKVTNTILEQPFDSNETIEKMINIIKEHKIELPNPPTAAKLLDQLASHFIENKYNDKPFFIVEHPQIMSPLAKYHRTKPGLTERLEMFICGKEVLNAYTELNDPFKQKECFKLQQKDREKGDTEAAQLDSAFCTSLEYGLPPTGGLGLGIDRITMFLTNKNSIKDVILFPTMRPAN

Source: ChEMBL document CHEMBL3988442, “University of Dundee, Small-Polar-MMV Screening Library” (2021).

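Enzyme assay of the cytosolic lysyl-tRNA synthetase in 384-well plates, read by luminescence. Target: Lysine-tRNA ligase, Plasmodium falciparum 3D7 (UniProt Q8IDJ8). Compounds at 30 µM. Direction is inferred from only a few compounds that gave an IC50; most scored high, so higher reads as stronger inhibition. About 69,000 compounds were tested under these conditions; 0.071% (about 49) showed 50% or more at least once.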

The filed quantity is “Percent Effect” (%). The controls that fix the scale are not given in the record; negative values are as filed. Compounds were drawn at random from those tested, without regard to their results.

| Compound | Percent Effect |
|---|---|
| `Cc1ccc(F)c(OC2(C(=O)O)CCN(C(=O)c3ccccc3)CC2)c1` | 3.987 |
| `COc1ccc(C(=O)NCC(C)(O)CCc2ccccc2)cc1` (centres undefined) | 1.867 |
| `CCOC(=O)CCC(=O)N1CCC(CSCc2ccco2)CC1` | 6.688 |
| `CS(=O)(=O)c1ccc(CNC[C@H]2COCc3nc4ccccc4n32)cc1` | 6.666 |
| `Cn1ncnc1NS(=O)(=O)c1ccc(F)cc1` | 1.183 |
| `Cn1ncc2c1C(COCC1CC1)CN(Cc1ccncc1)C2` (centres undefined) | 6.15 |
| `CC(C)c1nnc(NC(=O)CSCc2cc(=O)n3ccccc3n2)s1` | 3.234 |
| `NC(=O)CN1CCN(S(=O)(=O)N2CCCC2c2ccco2)CC1` (centres undefined) | 7.3 |
| `Cc1ccc(CN2CCC3(CC2)COCCN3S(C)(=O)=O)o1` | 2.138 |
| `CCc1nc2n(n1)CC(NCC(=O)Nc1cc(C)on1)CC2` (centres undefined) | 3.52 |
| `COc1cc(N2CC[C@@H](O)[C@@H]2Cc2ccncc2)ncn1` | 7.752 |
| `CCOCCN1CCN(CC(=O)N2CCCC2)CC1C` (centres undefined) | -3.104 |
| `O=C(COc1ccccc1N1CCCC1)N1CCN[C@H]2CS(=O)(=O)C[C@H]21` | 7.108 |
| `Cc1noc(CN(C)Cc2ccc3c(c2)OCO3)n1` | -1.437 |
| `C=Cn1ncc(CN2C[C@@H]3C[C@@H](O)CN3C[C@@H]2Cc2ccccc2)c1C` | 2.484 |
| `CSC(C)C(=O)NCc1ccnc(N2CCN(C)CC2)c1` (centres undefined) | 1.732 |
| `O=C(NCCc1nncn1C1CC1)C1(Cc2ccccc2)CCC1` | 1.429 |
| `N#CCCN(CC1CC1)Cn1cc(Cl)cn1` | -1.766 |
| `CN(C)S(=O)(=O)N1CC[C@]2(C[C@H](Oc3cccnc3)CO2)C1` | -0.7362 |
| `COCC(=O)N1CCCC(c2nc(N)ncc2-c2cccc(F)c2)C1` (centres undefined) | 0.1472 |
| `CC(C)(C)c1nnc2n1C(C(=O)N1CCN(c3ncccn3)CC1)CC2` (centres undefined) | 2.544 |
| `Cn1ccnc1CN1CC[C@@H](NS(C)(=O)=O)[C@@H]1Cc1ccccc1` | -2.577 |
| `CC(=O)N1CC[C@H]2N(C)CC[C@@]2(C(=O)Nc2cccnc2)CC1` | 6.036 |
| `COC(C)(C)CNC(=O)N1CCCC1c1c(C)n[nH]c1C` (centres undefined) | 0.2236 |
| `COc1cc(N2CCC3(CCN(Cc4csc(C)n4)C3)CC2)ncn1` | 3.792 |
| `CCn1cc(NC(=O)NCC(C)(C)N2CCc3ccccc3C2)cn1` | 2.262 |
| `CCN(Cc1nc(COC)no1)C[C@]1(O)CCCN2CCCC[C@@H]21` | 1.028 |
| `CNc1cncc(C2CCCN2C(=O)CCn2ccnc2)n1` (centres undefined) | -0.4556 |
| `CC(c1nc(C2CC2)no1)N(C)Cc1ccc(Cl)cc1` (centres undefined) | 1.11 |
| `Cn1cc(CN2CCC(F)(F)C3(CCN(c4cnccn4)C3)C2)cn1` (centres undefined) | 5.816 |
| `CCc1nn(C)c(Cl)c1CN1CCN(c2nc(C(N)=O)cs2)CC1` | 10.62 |
| `O=C(CNC1CCc2ncnn2C1)NCCc1cccs1` (centres undefined) | 9.152 |
| `c1nc2c(c(C3CC3)n1)CCN(Cc1ccc3c(c1)OCO3)CC2` | -3.03 |
| `CC(C)NC(=O)[C@H]1C[C@@H]2[C@@H](C1)OCCN2Cc1ccsc1` | 0.8881 |
| `O=C(CCc1nc(Cl)n[nH]1)NC1CCCN(C2Cc3ccccc3C2)C1` (centres undefined) | -1.029 |
| `CNc1cc(C2CCCN2Cc2ccc(OCC(=O)O)cc2)ccn1` (centres undefined) | 1.27 |
| `COc1ccc(F)c(-c2ccnc(N)c2)c1` | 0.6174 |
| `CC(C)N(C)[C@@H]1CCN(C(=O)[C@H]2CCCO2)[C@H]1Cc1cnn(C)c1` | 5.032 |
| `C=C(C)CN1CCC(NC(=O)Nc2cc(C(N)=O)ccc2OC)CC1` | 7.486 |
| `Cn1cnc2c1CCN(C(C(=O)N1CCCCC1)c1ccccc1)C2` (centres undefined) | 8.855 |
| `O=C1OCCCN1Cc1nc(-c2ccncc2)no1` | 0.884 |
| `O=C1N(Cc2cccc(F)c2)CCC12CCCNC2` (centres undefined) | 1.885 |
| `CC(O)CNC(=O)NCCCN1CCN(c2ncccn2)CC1` (centres undefined) | 6.922 |
| `Cn1cc(CN2CCC[C@]3(C[C@@H](Oc4ncccc4F)CO3)C2)cn1` | 5.239 |
| `O=C(CCC1CC1)N1C[C@@H](CN2CCCC2)[C@@H](CO)C1` | 1.007 |
| `COCCn1cc(NC(=O)N(CCC(N)=O)Cc2ccccc2)cn1` | 7.592 |
| `COc1ncccc1C(=O)NC1CCOc2ccccc21` (centres undefined) | 2.343 |
| `c1csc(CN2CCC3(CC2)CCN(CC2CC2)CC3)n1` | -0.6057 |
| `CC(CCS(C)(=O)=O)NC(=O)NCc1ccc2ccccc2c1` (centres undefined) | -6.716 |
| `CCNC(=O)CNS(=O)(=O)c1cc(Br)ccc1F` | 9.496 |
| `CCc1c(C)sc2c1c(N)nc(=O)n2CCN1CCOCC1` | 6.05 |
| `CC(C)c1nnc(CN2CCCC2Cn2cncn2)o1` (centres undefined) | 3.629 |
| `COc1cc(F)ccc1-c1cc(CO)ccn1` | 2.742 |
| `COCCN1CCC(NCc2ccc(Cl)cc2)C1` (centres undefined) | 2.891 |
| `CN(CCOc1cccc(F)c1)Cc1nc2c(cnn2C)c(=O)[nH]1` | 1.465 |
| `CCCOc1ccc(CCC(=O)Nc2nonc2C)cc1` | 1.421 |
| `N#Cc1ccsc1NC(=O)CN1CCOC(Cn2cccn2)C1` (centres undefined) | -0.5203 |
| `CCOc1ccc(C#N)cc1NC(=O)N1CCC(N2CCCC2)C1` (centres undefined) | 7.055 |
| `O=c1c(CN2CCOCC2)coc2ccc(Cl)cc12` | 28.32 |
| `O=C(N[C@H]1CC[C@@]2(CCC(=O)N2CC2CC2)CC1)c1cnccn1` | 1.472 |
| `COC(=O)c1ccc2nc(CO[C@H]3CN(CC4CC4)C[C@H]3F)[nH]c2c1` | 6.068 |
| `CC(=O)Nc1nc(C(=O)N2CCCCC2Cn2cc(C)cn2)cs1` (centres undefined) | 1.436 |
| `CNC(=O)[C@@H]1CCO[C@@H]2CCN(CCc3ccccc3)C[C@H]21` | 3.257 |
| `COc1cccc(CNCc2nc3ccccc3c(=O)[nH]2)c1` | 1.205 |
| `O=C(c1nn[nH]c1Nc1ccc(Cl)cc1)N1CCCCCC1` | 5.859 |
| `CN(Cc1cc2cc(F)ccc2[nH]1)C(=O)C1CC(=O)N(C(C)(C)C)C1` (centres undefined) | 0.6226 |
| `Cc1cc(NS(=O)(=O)c2ccc(Cl)s2)ccc1-n1cccc1C(=O)O` | 7.182 |
| `Cc1cnc(N2CCCn3c(nnc3Cn3cccn3)C2)nc1` | -1.028 |
| `C1CN(c2nc(C3CC3)ns2)CCO1` | 2.966 |
| `COc1c(C2CCCN2C(=O)c2ccnn2C)c(C)nn1C` (centres undefined) | 0.8838 |
| `Cc1cc(CN2CCC(c3cc(Cc4ccccc4)n[nH]3)CC2)[nH]n1` | 8.361 |
| `Cc1cc(CNC(=O)[C@H]2CCCCN2C(=O)OC(C)(C)C)on1` | -0.03427 |
| `Cn1cc(C2SCC(=O)Nc3c2cnn3C(C)(C)C)cn1` (centres undefined) | 0.4119 |
| `O=S(=O)(N1CCCC1)N1CC(c2ccnc(Nc3ccccn3)n2)C1` | -1.058 |
| `CC(C)N1CCc2ncn(C)c2C1C(=O)NCCN1CCCC1` (centres undefined) | 5.085 |
| `Cc1cc(NCC2CCS(=O)(=O)C2)n2nc(C)cc2n1` (centres undefined) | 1.57 |
| `COc1ccc2cc(C(=O)N3CCCC3Cn3cc(C)cn3)[nH]c2c1` (centres undefined) | 1.04 |
| `Cc1cc(C(=O)N2C[C@@H]3CN(S(C)(=O)=O)CCO[C@@H]3C2)c(C)o1` | -3.285 |
| `Cc1occc1C(=O)Nc1cc(N2CCNC2=O)ccc1Cl` | 3.131 |
| `CCOCC(=O)N1C[C@@H]2CC[C@H](Oc3ccccc3)[C@@H]2C1` | 1.022 |
| `CCCOc1ccccc1C(N)CC(C)C` (centres undefined) | -0.6787 |
| `COCCC1(CNC(=O)NCC2CCCS2)CCCC1` (centres undefined) | 1.905 |
| `c1cc(CNCC2OCCc3cn(CC4CC4)nc32)cs1` (centres undefined) | 0.9454 |
| `CCC(O)CN1CCN(C(=O)Cc2ccc(OC)cc2OC)CC1` (centres undefined) | -0.3752 |
| `Cc1nc(Cn2c3c(ccc2=O)CCN(CC2CCC2)CC3)cs1` | 5.917 |
| `O=C(c1ccco1)N1C[C@H]2CCCN(CC3CC3)[C@H]2C1` | 3.86 |
| `Cc1cnn(CCCNC(=O)CCC2CCCCN2C)c1` (centres undefined) | 4.951 |
| `Cc1cc(-c2cnn(C)c2)ccc1OCC(N)=O` | -1.253 |
| `CCc1nc(C2CCCN2C(=O)c2ccc3c(c2)[nH]c(=O)n3C)no1` (centres undefined) | 1.254 |
| `CC(=O)c1cccc(S(=O)(=O)N2CCC(c3n[nH]c(C)n3)CC2)c1` | 5.638 |
| `Cc1nc(C2CCCN2CC(=O)Nc2c(C)n[nH]c2C)no1` (centres undefined) | -4.965 |

Repeated from the top, 5 entries:

For Cc1ccc(F)c(OC2(C(=O)O)CCN(C(=O)c3ccccc3)CC2)c1 the result was 3.987%.
For COc1ccc(C(=O)NCC(C)(O)CCc2ccccc2)cc1 (centres undefined) the result was 1.867%.
For CCOC(=O)CCC(=O)N1CCC(CSCc2ccco2)CC1 the result was 6.688%.
For CS(=O)(=O)c1ccc(CNC[C@H]2COCc3nc4ccccc4n32)cc1 the result was 6.666%.
For Cn1ncnc1NS(=O)(=O)c1ccc(F)cc1 the result was 1.183%.